From PMC10163288
The other results are listed elsewhere or left out.

B1: il10ra_site1_sap_18_mot_HHH_b1_03270_000000208_0001_21_37_H_._HHH_b1_05102_af2_0001_0000200006_0000001_0_0001 (protein)
chain: SSSSDEVEERAEELIERIEELIENGDPERALRLIIELLRLAFRNRDEEIMREAWRLAEELKSSSS
B2: il10ra_site1_normal_mot_HHH_b1_04940_000000219_0001_1_18_H_._HHH_b1_08156_0002_0000100002_0000002_0_af2pred_0001 (protein)
chain: SSSSDELERALRRLLQALKHAIELGDEERARLTIKDIEHSARFLKDEEVQRLVEELREELESSSS
B3: il10ra_site1_sap_15_mot_HHH_b2_00984_000000042_0001_1_20_H_._HHH_b2_07448_0001_0000300046_0000002_0_0001 (protein)
chain: PEELIEELAEKAGVPPEEVERVLREIKELLNLPPEQAVKSVRQLSEQEGDPRWALEVAERAARLT
B4: il10ra_site1_sap_23_mot_HHH_b2_08186_000000021_0001_43_56_H_._HHH_b2_02878_af2_0002_0000400016_0000001_0_0001 (protein)
chain: SSSSEEAEELVKEVEEELRRLLEEGNTDEAYRALKEAIEELIELGDPEAAHRLSRLFLELASSSS
B5: il10ra_site1_sap_22_mot_HHH_b2_03434_000000017_0001_1_19_H_._HHH_b1_05537_af2_0001_0000300028_0000001_0_0001_af2pred_0001 (protein)
chain: SSSSDEVREEVERLLEEAEELAKKGNPEEALKLIREAAEIAAQNRDPEALRLVIELARRLFSSSS
B6: il10ra_site1_sap_14_mot_HHH_b1_02815_af2_000000247_0001_3_20_H_._HHH_b2_03543_0001_0000200018_0000001_0_0001_af2pred_0001 (protein)
chain: SSSSSEELEEYEERLEELIERGDKEEFSQLVAEALRLAHELGDEELLKKILELAVKFLKAESSSS
B7: il10ra_site1_normal_mot_HHH_b1_05357_000000034_0001_23_39_H_._HHH_b2_07808_0001_0000100006_0000001_0_af2pred_0001 (protein)
chain: SSSSSDEEVEERIEELLEEAQKIEDREEVTYLLIRAFALANEVNDPELEKEIKKVAKELSSSSSS
B8: il10ra_site1_sap_15_mot_HHH_b1_02420_000000033_0001_20_36_H_._HHH_b2_05519_0001_0000200018_0000001_0_0001_af2pred_0001 (protein)
chain: SSSSSSDIELAARFVAFSAESAGNPEIAEEVRELLEEYQEEGKQEYLQLIVRLSRELLSSSSSSS
B9: il10ra_site1_normal_mot_HHH_b2_06979_000000158_0001_42_57_H_._HHH_b2_06581_af2_0001_0000200012_0000001_0 (protein)
chain: SSSSSEEVQRIVKLLREAAEIEDKEEAEEVVEEALELAEELGNELLRINVEFLLRDLRRGSSSSS
B10: il10ra_site1_normal_mot_HHH_b2_01310_000000089_0001_41_55_H_._HHH_b1_02429_0001_0000600044_0000001_0 (protein)
chain: SSSSDEEEERVEELEEEIRRLIEKGNPEEAVRLVQEIVRFAFRAQDPELLRLARELAREASSSSS
B11: il10ra_site1_normal_mot_HHH_b2_00440_af2_000000075_0001_42_56_H_._HHH_b2_03761_0001_0000500034_0000001_0_af2pred_0001 (protein)
chain: SSSSSEEEVRRRVEELLEEAEETPDPEERIRLLREAAHLASELGDPELQRLVIRLAQELISSSSS
B12: il10ra_site1_normal_mot_HHH_b1_01821_000000158_0001_23_39_H_._HHH_b1_04649_0001_0000100004_0000001_1 (protein)
chain: SSSSSEEEERVEELLEEAKRIDDREKLIEVLLEALRIALEIGNEELLREIWRLFRELIEEVSSSS
B13: il10ra_site1_normal_mot_HHH_b2_03220_af2_000000223_0001_23_40_H_._HHH_b1_08461_0001_0000300052_0000001_0 (protein)
chain: SSSSTEINERIWELLKLVLELRANGNPEEAQEVLEEARELVEEANNELLRFNVELLERDLRSSSS
B14: il10ra_site1_sap_9_mot_cffd2965c37bdde328b01796c783dcd7_0001_1_af2_000000013_0001_37_51_H_._HHH_b2_02076_0001_0000100004_0000002_0_0001_af2pred_0001 (protein)
chain: SSSSDELERAVKILLRAARRARELGDEEVVRRALYFAKWLAEEGNDEELREAVEELERELSSSSS
B15: il10ra_site1_normal_mot_HHH_b1_06789_af2_000000041_0001_1_20_H_._HHH_b2_03753_0001_0000100002_0000002_0_af2pred_dldesign_0_af2pred (protein)
chain: SSSSSAKYYAEQALRAARLLHEAGYLEEARKAADIALQIAKQAGDEELIKKVEDFRRELESSSSS
B16: il10ra_site1_sap_30_mot_HHH_b2_02736_000000092_0001_22_38_H_._HHH_b1_04432_0001_0000100012_0000001_0_0001 (protein)
chain: SSSSDVDRRAYELSRRAAELHSEGDEEEFREVVEEAEQLAEEANNFAILFALEVLKRALESSSSS
B17: il10ra_site1_normal_mot_HHH_b1_05357_000000034_0001_23_39_H_._HHH_b2_07548_0002_0000200008_0000001_1_af2pred_0001 (protein)
chain: SSSSSDEEEEEVEELLEEAKHIEDLRRVSYLMIRAFAIAYRLNDPELERLVKKVAQELNSSSSSS
B18: il10ra_site1_normal_mot_HHH_b1_05357_000000034_0001_23_39_H_._HHH_b2_00663_0001_0000800048_0000001_0_af2pred_0001 (protein)
chain: SSSSSSDEEEVRELLEEAKEVPDPHERSYLLLRAYAVANRANDPELRRLVREVAKKLLHSSSSSS
B19: il10ra_site1_sap_23_mot_HHH_b2_02337_000000026_0001_38_52_H_._HHH_b1_01406_af2_0001_0000300012_0000002_0_0001_af2pred_dldesign_0_af2pred (protein)
chain: SSSSDRAELEAYLDALVAELGLTEEQRAILRLVLDDALAAGLSPERIRELLRTAAEYLAERSSSS
B20: il10ra_site1_normal_mot_HHH_b2_02693_af2_000000213_0001_19_35_H_._HHH_b2_04275_0001_0000300016_0000001_0_af2pred_0001 (protein)
chain: SSSSSSEESEELLEQLEEALRRGDEELIARLVLEIARLAEELNDKELVEELLRLLVEHQSSSSSS
B21: il10ra_site1_normal_mot_HHH_b1_01879_000000050_0001_1_18_H_._HHH_b2_02257_0001_0000300009_0000002_0_af2pred_0001 (protein)
chain: SSSSDEEVEEVVFEAQILAFKLGDEETLRRLAELSVQIKLRGDPRLREEVEELAEEFLEEYSSSS
B22: il10ra_site1_sap_24_mot_HHH_b1_05185_000000011_0001_22_39_H_._HHH_b1_07230_0001_0000300015_0000001_0_0001 (protein)
chain: SSSSDRELSDEAYKVLEEALELMANGNPEEAEELLEELRRLLEENGNRVMLHQVRFLLKALSSSS
B23: il10ra_site1_sap_19_mot_HHH_b2_01205_000000166_0001_1_19_H_._HHH_b1_00924_0001_0000200025_0000001_0_0001_af2pred_0001 (protein)
chain: SSSSSSSEIEEIEEEVRRLAENGNPEEALKLVIKAARELAERGNPEAAARLARLFAELSSSSSSS
B24: il10ra_site1_sap_12_mot_HHH_b1_00814_af2_000000078_0001_43_57_H_._40e86e4e32a25ee6cbb7392bdf050625_0001_1_0001_0000100001_0000001_0_0001 (protein)
chain: SSSSNSVAEVVARAVRAAFQLNDEETLRELWELFKRYIEEGDERYRERLEELLEELEERLSSSSS
B25: il10ra_site1_sap_13_mot_HHH_b1_03314_af2_000000278_0001_42_55_H_._HHH_b2_05627_0001_0000300016_0000001_0_0001 (protein)
chain: SSSSDEEEEELRRLIEELRELLENGNPEEAAEVAQRAARLAHEAHNPELLRELWELFARNFSSSS
B26: il10ra_site1_sap_17_mot_HHH_b1_05865_af2_000000211_0001_1_17_H_._HHH_b2_02858_af2_0001_0000800028_0000001_0_0001 (protein)
chain: SSSSDEENEEALELSVEAFRLALRGNPEEAREVLEEARRLAEELGNERLLEQIEELLRALNSSSS
B27: il10ra_site1_sap_13_mot_HHH_b1_06914_000000280_0001_1_18_H_._HHH_b1_07380_0001_0000200023_0000001_0_0001 (protein)
chain: SSSSSSREEVEELLEQAEELAERGNPEEANELLQEAVRIALEAGDEEALQAVWEVVRRLAKSSSS
B28: il10ra_site1_normal_mot_HHH_b1_02397_af2_000000085_0001_39_57_H_._HHH_b1_06802_af2_0001_0000500015_0000001_0 (protein)
chain: SSSSSEEEEELKELLKELRELVEEGDQEKIARLAQEVLRLAFRLNDEEALRFVWEVMRRLSSSSS
B29: il10ra_site1_normal_mot_HHH_b1_07641_af2_000000285_0001_1_21_H_._HHH_b2_07874_af2_0001_0000200011_0000001_0_1_af2pred_0001 (protein)
chain: SSSSSTEEAIRLLEEAAELLNNGDPEEAEEVAEEALEIAREAGDELLALSIEYLLELIRRSSSSS
B30: il10ra_site1_normal_mot_HHH_b2_01447_af2_000000258_0001_1_20_H_._HHH_b2_04530_0001_0000200013_0000002_0 (protein)
chain: SSSSTEDAQEVMELAREVSELDQEGDEEEAEEVLREAEEIAERHNNFVLRAALEHLRRVLSSSSS
B31: il10ra_site1_sap_15_mot_HHH_b1_03273_000000263_0001_1_14_H_._HHH_b2_00406_0001_0000500018_0000001_0_0001 (protein)
chain: SSSSSSDAEELLEEAEELLENGNPEEAIRAVQEAVRHAHQKRDEETLQLLWELVQEIASSSSSSS
B32: il10ra_site1_sap_18_mot_HHH_b2_01162_af2_000000234_0001_1_19_H_._HHH_b2_00001_0002_0000800077_0000001_0_0001 (protein)
chain: SSSSTIAEEAVRWLVHSLRRAKELGNEEYARAAARFLLAEARRVGDEEAEELAEEVLEELSSSSS
B33: il10ra_site1_sap_12_mot_6bb093d23f5042b6c551c363657da53b_0001_1_000000153_0001_51_65_H_._HHH_b2_02486_af2_0001_0001000052_0000001_0_0001_af2pred_0001 (protein)
chain: SSSSSAEELVRSALKAAKIAAENGDEEAVEKALKIAKQLAKANNDEELEKEIKRFEEELRSSSSS
B34: il10ra_site1_normal_mot_HHH_b1_04175_af2_000000064_0001_24_41_H_._HHH_b1_05042_0001_0000100011_0000001_0 (protein)
chain: SSSSDEELREEAEELLKEIRELIEEGDDERAAQLLLRVTRIAWELNDEELLQLIAELHELNSSSS
B35: il10ra_site1_sap_24_mot_HHH_b2_02053_af2_000000006_0001_3_19_H_._HHH_b1_02484_0001_0000200018_0000001_0_0001 (protein)
chain: SSSSNREVYELLRRAAEASHEGNLEEAEELVRKAVELAEELNNMVLLAVARYILKRIEELLSSSS
B36: il10ra_site1_sap_20_mot_HHH_b2_00943_af2_000000149_0001_1_17_H_._HHH_b2_02885_af2_0001_0000100001_0000001_0_0001 (protein)
chain: SSSSDEELEEVLRLILEAFRLALRGDEEEARKLLEEALEIAREINDERIAKMIEDLLKALSSSSS
B37: il10ra_site1_sap_28_mot_HHH_b2_00800_af2_000000047_0001_1_20_H_._HHH_b2_05061_0001_0000200029_0000001_0_0001_af2pred_0001 (protein)
chain: SSSSSEEVERVRRLLRKAIELARKGNPEEAEKVLEEAKEIAEEAGNELLRLLLEFAERLIKSSSS

These binders were tested against il10ra, Q13651 (assay: yeast display titration).

Apparent Kd, inactive:
B1 no binding seen
B2 no binding seen
B3 no binding seen
B4 no binding seen
B5 no binding seen
B6 no binding seen
B7 no binding seen
B8 no binding seen
B9 no binding seen
B10 no binding seen
B11 no binding seen
B12 no binding seen
B13 no binding seen
B14 no binding seen
B15 no binding seen
B16 no binding seen
B17 no binding seen
B18 no binding seen
B19 no binding seen
B20 no binding seen
B21 > 512 nM
B22 no binding seen
B23 no binding seen
B24 no binding seen
B25 no binding seen
B26 no binding seen
B27 no binding seen
B28 no binding seen
B29 no binding seen
B30 no binding seen
B31 no binding seen
B32 no binding seen
B33 no binding seen
B34 no binding seen
B35 no binding seen
B36 no binding seen
B37 no binding seen

Pulled one by one from the entries so far:
Apparent Kd, inactive:
B6 no binding seen
B36 no binding seen
